These are yes or no findings as the source states them, for the method shown. In cells and extracts the contact can be indirect. Some results given as binding are weak or reduced against the parent protein; the word gives no strength.
Columns and labels:
[1] = target: sigma-1 receptor-Dsred (human) (UniProt Q99720); test: co-IP; HEK-293T cells co-expressing both, RIPA lysate; precipitated with anti-sigma-1 receptor or anti-Cav2.2 antibody and agarose A beads at 4°C; blots with anti-Cav2.2 or anti-sigma-1 receptor antibody; IgG as negative control
[2] = target: GFP-Cav2.2 channels (α1b+β1b+α2δ1 subunits) (UniProt Q02294); test: as above

Sequences of proteins named here, by UniProt entry; tags and fusion partners are left off. A change or cut given only in a name is not applied to a line headed by its entry.
UniProt Q99720: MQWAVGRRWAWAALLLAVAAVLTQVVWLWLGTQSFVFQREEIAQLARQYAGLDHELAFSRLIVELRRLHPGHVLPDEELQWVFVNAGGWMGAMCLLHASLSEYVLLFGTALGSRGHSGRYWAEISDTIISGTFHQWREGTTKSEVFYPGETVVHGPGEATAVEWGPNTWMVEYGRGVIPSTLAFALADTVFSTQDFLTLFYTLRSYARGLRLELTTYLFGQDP

Substance	binding [1]	binding [2]
GFP-Cav2.2 channels (α1b+β1b+α2δ1 subunits) (from UniProt Q02294 1-2336; Q02641-1 1-598; P54290 25-1091) (complex)	binds	–
sigma-1 receptor-Dsred (from UniProt Q99720-1 1-223)	–	binds

Source: PMC5445107
